According to paper PMC4256260:
Results are given in words; binding and its absence hold for the method and conditions named. Binding seen in cells or lysates may run through a third protein. Some binding calls cover weakened binding; strength is not graded here.

Sequences of proteins named here, by UniProt entry; tags and fusion partners are left off.
UniProt P29341: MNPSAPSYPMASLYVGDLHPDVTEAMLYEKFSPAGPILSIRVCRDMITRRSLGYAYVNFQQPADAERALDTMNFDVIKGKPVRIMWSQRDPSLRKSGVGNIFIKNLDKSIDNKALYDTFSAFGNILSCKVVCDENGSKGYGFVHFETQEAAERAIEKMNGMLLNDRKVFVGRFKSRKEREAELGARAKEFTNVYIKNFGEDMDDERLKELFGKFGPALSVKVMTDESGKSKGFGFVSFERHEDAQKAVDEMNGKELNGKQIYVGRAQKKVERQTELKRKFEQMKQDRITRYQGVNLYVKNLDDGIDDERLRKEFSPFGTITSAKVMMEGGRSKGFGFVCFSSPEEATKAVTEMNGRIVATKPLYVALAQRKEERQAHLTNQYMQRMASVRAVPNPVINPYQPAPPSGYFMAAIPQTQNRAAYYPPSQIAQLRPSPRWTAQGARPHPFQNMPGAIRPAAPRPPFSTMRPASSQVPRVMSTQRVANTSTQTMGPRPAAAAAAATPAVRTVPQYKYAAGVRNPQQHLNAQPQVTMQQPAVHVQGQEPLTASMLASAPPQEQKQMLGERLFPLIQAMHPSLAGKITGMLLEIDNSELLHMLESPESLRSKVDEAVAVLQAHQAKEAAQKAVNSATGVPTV
UniProt Q62029: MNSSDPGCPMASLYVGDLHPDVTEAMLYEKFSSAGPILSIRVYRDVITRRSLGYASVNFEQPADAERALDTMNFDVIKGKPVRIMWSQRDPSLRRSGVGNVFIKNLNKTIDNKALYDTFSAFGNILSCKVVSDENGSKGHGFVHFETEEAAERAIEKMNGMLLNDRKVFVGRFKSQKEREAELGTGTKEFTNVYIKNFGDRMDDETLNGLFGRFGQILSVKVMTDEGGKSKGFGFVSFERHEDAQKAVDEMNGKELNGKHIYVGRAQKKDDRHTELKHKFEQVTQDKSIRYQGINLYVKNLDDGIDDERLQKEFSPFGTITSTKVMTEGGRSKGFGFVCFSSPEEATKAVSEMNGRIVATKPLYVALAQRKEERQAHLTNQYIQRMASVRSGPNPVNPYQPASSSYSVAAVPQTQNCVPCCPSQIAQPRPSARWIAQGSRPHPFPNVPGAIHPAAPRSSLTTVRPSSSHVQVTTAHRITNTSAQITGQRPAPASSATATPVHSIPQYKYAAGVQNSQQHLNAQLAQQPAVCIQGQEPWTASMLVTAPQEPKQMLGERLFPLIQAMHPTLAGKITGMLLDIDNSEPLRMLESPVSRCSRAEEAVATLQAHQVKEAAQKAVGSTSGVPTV
UniProt P69566: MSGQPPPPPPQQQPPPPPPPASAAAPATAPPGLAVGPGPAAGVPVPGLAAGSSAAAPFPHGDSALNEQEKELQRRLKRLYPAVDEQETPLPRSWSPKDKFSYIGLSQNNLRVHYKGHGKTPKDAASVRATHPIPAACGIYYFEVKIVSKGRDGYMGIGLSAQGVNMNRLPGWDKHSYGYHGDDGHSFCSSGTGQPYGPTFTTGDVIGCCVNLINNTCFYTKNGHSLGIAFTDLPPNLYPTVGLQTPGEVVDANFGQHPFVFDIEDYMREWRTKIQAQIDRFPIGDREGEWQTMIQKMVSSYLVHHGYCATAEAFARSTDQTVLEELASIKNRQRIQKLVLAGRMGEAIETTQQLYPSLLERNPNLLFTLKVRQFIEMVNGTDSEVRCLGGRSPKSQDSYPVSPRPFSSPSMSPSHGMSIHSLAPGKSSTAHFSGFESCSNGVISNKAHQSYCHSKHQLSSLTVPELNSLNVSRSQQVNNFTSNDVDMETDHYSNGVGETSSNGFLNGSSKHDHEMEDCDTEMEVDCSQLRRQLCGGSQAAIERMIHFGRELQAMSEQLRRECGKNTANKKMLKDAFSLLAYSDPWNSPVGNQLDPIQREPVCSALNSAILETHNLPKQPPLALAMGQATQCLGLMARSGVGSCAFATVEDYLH

Columns and labels:
Experiment in all cases: co-IP; in vivo co-immunoprecipitation from murine testes: antibodies specific for PABPC1, PABPC2, SF3B3 or HNRNPM used for IP, Western blot with mouse monoclonal anti-RANBP9 antibody; IgG as negative control
[1] = target: T1, splicing factor HNRNPM (mouse (endogenous in testis)) (UniProt Q9D0E1)
T1 sequence: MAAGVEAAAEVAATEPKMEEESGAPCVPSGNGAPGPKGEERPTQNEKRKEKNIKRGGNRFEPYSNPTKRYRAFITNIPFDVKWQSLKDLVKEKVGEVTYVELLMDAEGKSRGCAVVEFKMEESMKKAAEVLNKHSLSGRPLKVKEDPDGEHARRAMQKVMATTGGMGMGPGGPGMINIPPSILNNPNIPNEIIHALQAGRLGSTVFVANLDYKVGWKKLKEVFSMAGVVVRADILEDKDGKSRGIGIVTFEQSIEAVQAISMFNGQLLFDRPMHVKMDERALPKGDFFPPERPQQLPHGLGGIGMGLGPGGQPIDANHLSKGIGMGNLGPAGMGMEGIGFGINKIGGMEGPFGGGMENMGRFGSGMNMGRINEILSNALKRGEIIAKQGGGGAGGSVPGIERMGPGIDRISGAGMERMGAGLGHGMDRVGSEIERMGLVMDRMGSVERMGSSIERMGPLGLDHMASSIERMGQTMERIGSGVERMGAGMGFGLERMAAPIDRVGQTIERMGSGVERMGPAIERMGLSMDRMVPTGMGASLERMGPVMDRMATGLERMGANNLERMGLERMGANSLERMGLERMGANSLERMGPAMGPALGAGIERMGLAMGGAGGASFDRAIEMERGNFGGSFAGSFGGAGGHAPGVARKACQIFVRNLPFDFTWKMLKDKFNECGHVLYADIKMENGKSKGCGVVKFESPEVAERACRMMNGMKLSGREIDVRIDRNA

[2] = target: T2, splicing factor SF3B3 (mouse (endogenous in testis)) (UniProt Q921M3)
T2 sequence: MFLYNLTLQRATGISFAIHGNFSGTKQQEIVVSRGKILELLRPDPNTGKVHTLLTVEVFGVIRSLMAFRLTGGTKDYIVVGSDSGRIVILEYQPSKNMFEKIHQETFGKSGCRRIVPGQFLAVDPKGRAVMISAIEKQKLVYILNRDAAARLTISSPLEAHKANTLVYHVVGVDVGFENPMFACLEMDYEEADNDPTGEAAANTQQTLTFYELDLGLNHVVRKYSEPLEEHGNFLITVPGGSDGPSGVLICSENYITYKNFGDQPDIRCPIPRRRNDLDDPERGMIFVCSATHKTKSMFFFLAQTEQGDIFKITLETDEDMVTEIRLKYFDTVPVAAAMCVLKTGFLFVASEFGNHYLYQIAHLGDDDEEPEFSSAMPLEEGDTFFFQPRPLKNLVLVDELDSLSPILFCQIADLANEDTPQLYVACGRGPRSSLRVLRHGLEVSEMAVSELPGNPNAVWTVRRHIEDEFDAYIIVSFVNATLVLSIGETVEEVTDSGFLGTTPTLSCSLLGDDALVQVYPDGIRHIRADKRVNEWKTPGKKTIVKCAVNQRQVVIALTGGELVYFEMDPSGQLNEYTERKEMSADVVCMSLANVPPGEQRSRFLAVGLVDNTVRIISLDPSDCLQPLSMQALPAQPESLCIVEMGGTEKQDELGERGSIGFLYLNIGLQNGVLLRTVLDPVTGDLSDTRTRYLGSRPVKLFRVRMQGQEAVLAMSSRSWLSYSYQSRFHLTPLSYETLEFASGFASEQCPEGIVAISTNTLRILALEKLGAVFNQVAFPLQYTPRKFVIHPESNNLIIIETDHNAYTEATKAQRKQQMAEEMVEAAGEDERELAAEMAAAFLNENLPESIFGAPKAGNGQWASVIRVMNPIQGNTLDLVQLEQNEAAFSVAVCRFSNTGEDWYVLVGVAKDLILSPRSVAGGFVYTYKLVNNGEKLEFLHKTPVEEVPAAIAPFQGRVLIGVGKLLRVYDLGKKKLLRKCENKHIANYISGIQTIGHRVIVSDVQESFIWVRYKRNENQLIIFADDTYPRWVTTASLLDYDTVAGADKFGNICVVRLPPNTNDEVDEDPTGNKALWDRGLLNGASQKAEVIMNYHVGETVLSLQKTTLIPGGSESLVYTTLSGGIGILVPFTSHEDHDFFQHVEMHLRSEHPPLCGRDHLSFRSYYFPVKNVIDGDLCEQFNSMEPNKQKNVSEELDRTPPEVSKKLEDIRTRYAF

[3] = target: poly(A) binding protein PABPC1 (mouse (endogenous in testis)) (UniProt P29341)
[4] = target: poly(A) binding protein PABPC2 (mouse (endogenous in testis)) (UniProt Q62029)

Measured: binding

RAN-binding protein 9 (RANBP9) (from UniProt P69566 1-653)
binds: all assays above
